Source: the supplement of paper PMC12823440, “Inhibitors supercharge kinase turnover through native proteolytic circuits” (Nature, 2025)
Counter-ions that a name gives are not always drawn. The list shows a part of the results. The calls rarely recur for the same compound in another form.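 Kinases were expressed as nanoluciferase fusions in K562 cells and luminescence was read every 4 h between 2 and 18 h as percent of control, DMSO set to 100% and a positive control to 0%. A time point counts as decreased when the signal drops significantly (2 sigma). The hit call is the authors' own, does not follow from the count of time points alone, and its rule is not shown.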

Chains of the proteins cited; added tags and fusions are not shown. Lines headed by an entry give the natural chain unless they say otherwise; changes in a name come on top.
UniProt Q8IWU2: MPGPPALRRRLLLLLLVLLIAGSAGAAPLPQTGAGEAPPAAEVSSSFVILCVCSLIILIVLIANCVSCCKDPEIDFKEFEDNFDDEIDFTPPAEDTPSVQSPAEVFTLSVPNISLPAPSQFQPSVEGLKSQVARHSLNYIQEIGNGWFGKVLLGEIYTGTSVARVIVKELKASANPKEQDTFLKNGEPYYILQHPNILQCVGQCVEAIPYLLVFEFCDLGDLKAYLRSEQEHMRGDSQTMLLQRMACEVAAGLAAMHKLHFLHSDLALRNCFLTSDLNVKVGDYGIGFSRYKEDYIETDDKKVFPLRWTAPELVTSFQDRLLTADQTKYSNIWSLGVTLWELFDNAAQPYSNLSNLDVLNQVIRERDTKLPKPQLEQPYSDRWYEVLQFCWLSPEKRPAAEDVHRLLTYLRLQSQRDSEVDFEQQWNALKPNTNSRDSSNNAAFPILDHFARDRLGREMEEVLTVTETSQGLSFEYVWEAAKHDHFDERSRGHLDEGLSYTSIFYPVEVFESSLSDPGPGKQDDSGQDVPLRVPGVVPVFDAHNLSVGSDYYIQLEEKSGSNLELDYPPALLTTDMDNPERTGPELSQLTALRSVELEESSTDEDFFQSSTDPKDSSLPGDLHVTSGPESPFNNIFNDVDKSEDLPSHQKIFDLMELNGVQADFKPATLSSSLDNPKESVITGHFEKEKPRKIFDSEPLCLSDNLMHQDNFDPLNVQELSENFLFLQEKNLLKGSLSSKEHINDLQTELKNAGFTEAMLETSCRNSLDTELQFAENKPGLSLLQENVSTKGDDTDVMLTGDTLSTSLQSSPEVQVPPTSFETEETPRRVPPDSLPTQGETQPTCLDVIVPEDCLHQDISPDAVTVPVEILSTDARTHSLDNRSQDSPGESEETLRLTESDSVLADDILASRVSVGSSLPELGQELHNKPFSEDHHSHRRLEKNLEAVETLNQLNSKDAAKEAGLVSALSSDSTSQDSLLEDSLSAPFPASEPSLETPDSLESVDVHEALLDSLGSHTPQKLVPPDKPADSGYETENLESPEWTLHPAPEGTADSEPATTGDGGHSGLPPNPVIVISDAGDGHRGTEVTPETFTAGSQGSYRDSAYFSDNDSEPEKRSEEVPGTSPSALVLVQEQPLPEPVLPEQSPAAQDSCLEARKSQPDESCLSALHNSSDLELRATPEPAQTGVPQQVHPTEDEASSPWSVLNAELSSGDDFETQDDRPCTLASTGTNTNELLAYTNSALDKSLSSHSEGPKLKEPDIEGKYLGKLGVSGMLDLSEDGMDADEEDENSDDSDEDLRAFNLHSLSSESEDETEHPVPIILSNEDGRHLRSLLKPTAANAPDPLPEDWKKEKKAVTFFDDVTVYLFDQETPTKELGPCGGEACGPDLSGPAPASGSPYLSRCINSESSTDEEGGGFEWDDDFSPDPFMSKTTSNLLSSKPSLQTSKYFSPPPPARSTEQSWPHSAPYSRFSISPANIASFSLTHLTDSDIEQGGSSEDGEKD
UniProt P07948: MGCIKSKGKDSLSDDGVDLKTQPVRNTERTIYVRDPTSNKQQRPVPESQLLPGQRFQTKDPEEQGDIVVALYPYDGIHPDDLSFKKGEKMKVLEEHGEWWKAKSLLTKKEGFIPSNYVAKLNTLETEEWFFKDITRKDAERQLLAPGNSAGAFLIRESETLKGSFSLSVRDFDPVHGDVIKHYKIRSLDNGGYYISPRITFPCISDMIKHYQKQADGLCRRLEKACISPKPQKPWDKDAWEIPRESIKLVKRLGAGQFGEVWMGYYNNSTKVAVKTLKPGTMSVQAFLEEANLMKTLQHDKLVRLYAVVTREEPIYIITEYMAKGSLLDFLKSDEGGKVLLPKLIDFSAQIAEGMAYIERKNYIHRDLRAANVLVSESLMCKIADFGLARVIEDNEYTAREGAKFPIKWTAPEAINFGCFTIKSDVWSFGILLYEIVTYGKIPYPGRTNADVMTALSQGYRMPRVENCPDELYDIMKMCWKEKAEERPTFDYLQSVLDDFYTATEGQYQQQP
UniProt Q12851: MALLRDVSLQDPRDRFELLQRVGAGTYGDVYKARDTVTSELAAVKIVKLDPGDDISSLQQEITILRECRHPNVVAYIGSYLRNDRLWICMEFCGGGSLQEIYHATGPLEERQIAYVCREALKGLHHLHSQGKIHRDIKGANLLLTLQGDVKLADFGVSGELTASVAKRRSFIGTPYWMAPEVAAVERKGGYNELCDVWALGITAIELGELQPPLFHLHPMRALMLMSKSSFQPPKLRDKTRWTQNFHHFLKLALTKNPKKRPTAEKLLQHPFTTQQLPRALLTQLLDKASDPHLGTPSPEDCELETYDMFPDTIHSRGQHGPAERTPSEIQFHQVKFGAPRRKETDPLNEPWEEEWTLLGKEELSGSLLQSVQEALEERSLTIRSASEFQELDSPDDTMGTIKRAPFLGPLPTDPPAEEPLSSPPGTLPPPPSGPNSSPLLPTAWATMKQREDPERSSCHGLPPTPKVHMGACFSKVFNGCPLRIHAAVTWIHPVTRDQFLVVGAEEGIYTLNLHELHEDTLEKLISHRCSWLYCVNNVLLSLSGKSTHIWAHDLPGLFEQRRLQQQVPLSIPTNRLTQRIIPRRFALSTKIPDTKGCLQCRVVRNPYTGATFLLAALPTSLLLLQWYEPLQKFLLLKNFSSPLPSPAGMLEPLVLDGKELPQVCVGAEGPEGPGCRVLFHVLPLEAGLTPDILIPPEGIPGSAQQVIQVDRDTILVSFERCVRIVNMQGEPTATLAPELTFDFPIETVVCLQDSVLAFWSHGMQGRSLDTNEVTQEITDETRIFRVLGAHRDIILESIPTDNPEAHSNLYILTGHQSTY
UniProt P28482, whole entry: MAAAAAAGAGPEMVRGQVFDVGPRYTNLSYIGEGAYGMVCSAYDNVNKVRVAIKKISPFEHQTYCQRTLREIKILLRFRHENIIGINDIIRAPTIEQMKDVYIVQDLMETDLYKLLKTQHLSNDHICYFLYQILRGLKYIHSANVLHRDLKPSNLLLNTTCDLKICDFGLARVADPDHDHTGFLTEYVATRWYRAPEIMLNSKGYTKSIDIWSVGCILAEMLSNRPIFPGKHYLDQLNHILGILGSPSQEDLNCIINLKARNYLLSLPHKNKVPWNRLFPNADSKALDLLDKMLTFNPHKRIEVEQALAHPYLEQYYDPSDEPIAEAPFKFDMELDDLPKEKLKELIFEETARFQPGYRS
UniProt P49137, whole entry, looked up: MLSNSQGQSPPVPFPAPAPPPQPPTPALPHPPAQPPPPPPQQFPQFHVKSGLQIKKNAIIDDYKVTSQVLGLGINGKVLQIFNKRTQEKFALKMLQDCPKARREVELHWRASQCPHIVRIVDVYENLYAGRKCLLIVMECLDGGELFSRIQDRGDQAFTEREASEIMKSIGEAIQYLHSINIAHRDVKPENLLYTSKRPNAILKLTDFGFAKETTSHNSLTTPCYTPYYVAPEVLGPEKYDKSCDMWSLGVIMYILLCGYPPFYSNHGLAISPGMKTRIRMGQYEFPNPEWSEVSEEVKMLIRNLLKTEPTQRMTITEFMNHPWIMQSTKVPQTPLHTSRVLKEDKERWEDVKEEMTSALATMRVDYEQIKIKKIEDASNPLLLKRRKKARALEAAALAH
UniProt Q9BUB5: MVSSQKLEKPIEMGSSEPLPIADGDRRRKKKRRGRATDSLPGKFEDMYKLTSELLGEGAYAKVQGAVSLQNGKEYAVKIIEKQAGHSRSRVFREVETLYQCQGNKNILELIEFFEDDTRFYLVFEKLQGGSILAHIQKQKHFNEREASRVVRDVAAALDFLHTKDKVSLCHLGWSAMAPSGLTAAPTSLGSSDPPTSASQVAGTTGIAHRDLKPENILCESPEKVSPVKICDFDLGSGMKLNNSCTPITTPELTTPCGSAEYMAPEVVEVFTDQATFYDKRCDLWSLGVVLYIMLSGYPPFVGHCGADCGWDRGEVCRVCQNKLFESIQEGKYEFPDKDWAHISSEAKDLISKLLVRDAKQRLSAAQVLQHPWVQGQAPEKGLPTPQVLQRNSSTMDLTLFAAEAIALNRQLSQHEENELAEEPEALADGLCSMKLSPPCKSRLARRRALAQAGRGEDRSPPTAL
UniProt P09619, whole entry: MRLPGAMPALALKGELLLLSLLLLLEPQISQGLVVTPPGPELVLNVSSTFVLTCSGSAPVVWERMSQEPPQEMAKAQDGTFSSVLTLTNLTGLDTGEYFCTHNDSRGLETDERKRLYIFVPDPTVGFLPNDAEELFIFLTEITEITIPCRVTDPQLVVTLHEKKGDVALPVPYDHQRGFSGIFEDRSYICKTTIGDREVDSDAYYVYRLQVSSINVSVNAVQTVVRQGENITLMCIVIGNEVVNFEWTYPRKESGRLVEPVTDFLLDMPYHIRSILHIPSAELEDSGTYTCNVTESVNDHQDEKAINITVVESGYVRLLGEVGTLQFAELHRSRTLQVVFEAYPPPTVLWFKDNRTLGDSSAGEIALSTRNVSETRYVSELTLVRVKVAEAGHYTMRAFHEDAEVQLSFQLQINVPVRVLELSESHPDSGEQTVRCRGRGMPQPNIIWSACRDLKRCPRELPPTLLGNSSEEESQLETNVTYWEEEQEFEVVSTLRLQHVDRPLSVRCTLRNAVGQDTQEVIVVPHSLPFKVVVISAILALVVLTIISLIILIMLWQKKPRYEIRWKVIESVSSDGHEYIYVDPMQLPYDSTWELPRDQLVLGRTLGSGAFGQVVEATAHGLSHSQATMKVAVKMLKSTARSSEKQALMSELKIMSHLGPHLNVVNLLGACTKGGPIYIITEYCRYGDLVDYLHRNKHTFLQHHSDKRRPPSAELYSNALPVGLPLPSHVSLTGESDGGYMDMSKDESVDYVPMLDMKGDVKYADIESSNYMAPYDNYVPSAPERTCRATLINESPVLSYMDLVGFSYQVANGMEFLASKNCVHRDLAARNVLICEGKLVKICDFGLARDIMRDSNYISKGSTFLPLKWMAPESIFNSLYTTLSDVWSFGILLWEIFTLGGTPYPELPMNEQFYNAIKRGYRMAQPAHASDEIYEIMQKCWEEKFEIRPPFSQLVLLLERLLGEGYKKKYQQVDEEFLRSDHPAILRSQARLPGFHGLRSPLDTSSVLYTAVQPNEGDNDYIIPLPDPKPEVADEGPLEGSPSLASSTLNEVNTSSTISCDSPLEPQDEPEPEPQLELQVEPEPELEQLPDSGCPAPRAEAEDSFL
UniProt Q9UBF8: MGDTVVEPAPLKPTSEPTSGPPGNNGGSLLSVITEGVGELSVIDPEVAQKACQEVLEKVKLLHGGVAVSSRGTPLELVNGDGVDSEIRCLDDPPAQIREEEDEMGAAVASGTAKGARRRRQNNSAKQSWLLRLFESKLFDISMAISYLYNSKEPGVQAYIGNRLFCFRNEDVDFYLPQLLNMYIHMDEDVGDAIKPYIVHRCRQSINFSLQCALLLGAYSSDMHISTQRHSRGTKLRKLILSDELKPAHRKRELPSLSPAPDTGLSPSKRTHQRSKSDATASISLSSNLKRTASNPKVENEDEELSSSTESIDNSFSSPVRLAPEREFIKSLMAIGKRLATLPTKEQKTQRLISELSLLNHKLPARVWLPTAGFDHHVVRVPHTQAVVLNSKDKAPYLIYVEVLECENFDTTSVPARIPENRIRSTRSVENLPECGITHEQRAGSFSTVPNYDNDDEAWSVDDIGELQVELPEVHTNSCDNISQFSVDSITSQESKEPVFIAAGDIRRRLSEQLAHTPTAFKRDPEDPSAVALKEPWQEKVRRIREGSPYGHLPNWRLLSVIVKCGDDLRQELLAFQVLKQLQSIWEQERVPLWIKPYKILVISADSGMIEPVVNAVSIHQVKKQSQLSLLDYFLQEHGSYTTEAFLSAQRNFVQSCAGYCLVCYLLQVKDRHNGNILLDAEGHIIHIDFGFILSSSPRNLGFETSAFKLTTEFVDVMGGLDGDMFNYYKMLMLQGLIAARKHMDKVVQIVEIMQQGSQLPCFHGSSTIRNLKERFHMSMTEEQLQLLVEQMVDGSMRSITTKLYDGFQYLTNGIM
UniProt Q13131: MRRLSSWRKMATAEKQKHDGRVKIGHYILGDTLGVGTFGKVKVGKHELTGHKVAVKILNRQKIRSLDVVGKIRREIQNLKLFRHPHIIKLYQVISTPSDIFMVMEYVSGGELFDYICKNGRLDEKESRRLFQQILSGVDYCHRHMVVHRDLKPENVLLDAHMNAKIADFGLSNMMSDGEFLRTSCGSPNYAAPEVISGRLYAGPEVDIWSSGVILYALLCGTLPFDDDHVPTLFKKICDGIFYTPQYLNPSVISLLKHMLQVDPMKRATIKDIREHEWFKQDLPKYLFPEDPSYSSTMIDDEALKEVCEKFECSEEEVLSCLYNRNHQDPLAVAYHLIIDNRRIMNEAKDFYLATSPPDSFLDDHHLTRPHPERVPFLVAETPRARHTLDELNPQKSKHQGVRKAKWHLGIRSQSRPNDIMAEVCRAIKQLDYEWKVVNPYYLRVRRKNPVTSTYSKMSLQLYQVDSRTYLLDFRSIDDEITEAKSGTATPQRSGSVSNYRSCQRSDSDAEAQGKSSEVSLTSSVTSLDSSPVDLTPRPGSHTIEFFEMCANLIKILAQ

Key:
Assay in all cases: number of time points (of 5) at which kinase-Nluc abundance scored as decreased, DMSO-normalised (count); higher = more persistent destabilization
Settings in all cases: K562; 2-18 h
LMTK2 = LMTK2 (UniProt Q8IWU2)
LYN = LYN (UniProt P07948)
MAP2K1 = MAP2K1 (UniProt Q02750)
MAP2K2 = MAP2K2 (UniProt P36507)
MAP4K2 = MAP4K2 (UniProt Q12851)
MAPK1 = MAPK1 (UniProt P28482)
MAPK4 = MAPK4 (UniProt P31152)
MAPKAPK2 = MAPKAPK2 (UniProt P49137)
MKNK1 = MKNK1 (UniProt Q9BUB5)
NTRK3 = NTRK3 (UniProt Q16288)
PAK4 = PAK4 (UniProt O96013)
PBK = PBK (UniProt Q96KB5)
PDGFRB = PDGFRB (UniProt P09619)
PDK1 = PDK1 (UniProt Q15118)
PDPK1 = PDPK1 (UniProt O15530)
PIK4CA = PIK4CA (UniProt P42356)
PIK4CB = PIK4CB (UniProt Q9UBF8)
PLK1 = PLK1 (UniProt P53350)
PRKAA1 = PRKAA1 (UniProt Q13131)

Measured: number of time points

COc1ccc(CCNCc2ccc(OCc3ccc(Cl)nc3)c(OC)c2)cc1OC [SBE13 (Hydrochloride)] (10 µM)
0: all assays above

C=CC(=O)Nc1cc(Nc2nccc(-c3cn(C)c4ccccc34)n2)c(OCC(F)(F)F)nc1N(C)CCNC [AST5902  (trimesylate)] (2.5 µM)
2: PLK1
4: MKNK1
0: all other assays above

CC(C)(CCCCCC(O)CCCCCC(C)(C)C(=O)O)C(=O)O [Bempedoic acid] (10 µM)
0: all assays above

O=C(Nc1ccc(Cl)cc1)C1CN(C(=O)c2cccc(-c3ccco3)c2)CC(F)(F)C1 (stereo not drawn) (2.5 µM)
0: all assays above

COc1cc(N2CCC(N3CCN(C)CC3)CC2)ccc1Nc1ncnc(Nc2ccccc2S(=O)(=O)C(C)C)n1 (10 µM)
0: all assays above

CCC[C@H](C)Oc1nc(N)c2[nH]c(=O)n(CCCCCN3CCCCC3)c2n1 (10 µM)
0: all assays above

Reprinted from the results shown (2 entries):
COc1cc(N2CCC(N3CCN(C)CC3)CC2)ccc1Nc1ncnc(Nc2ccccc2S(=O)(=O)C(C)C)n1 (10 µM)
0: all assays above

CCC[C@H](C)Oc1nc(N)c2[nH]c(=O)n(CCCCCN3CCCCC3)c2n1 (10 µM)
0: all assays above

More results:

O=C1NC(=O)C(Cc2c[nH]c3c(Cl)cccc23)N1 (stereo not drawn) [Necroptosis-IN-1] (10 µM)
0: all assays above

Cc1cccc(CC(=O)N2CCc3c2ccc(-c2cn(C)c4ncnc(N)c24)c3F)n1 (10 µM)
0: all assays above

N#Cc1cc(-c2ccnc(Nc3ccc(N4CCOCC4)cc3)n2)ccc1OC1CCOCC1 (10 µM)
0: all assays above

Nc1ccc(Sc2nc3ccccc3s2)c(Cl)c1 [KRAS inhibitor-9] (10 µM)
0: all assays above

CCOc1cc(N2CCC(O)CC2)ccc1Nc1ncc2c(n1)N(C1CCCC1)CCC(=O)N2C (2.5 µM)
0: all assays above

CN(C)CCOc1cc(-c2cn[nH]c2)ccc1NC(=O)C1COc2ccccc2O1 (stereo not drawn) (10 µM)
0: all assays above

CC(ONC(=O)c1cc(C(F)(F)F)cc(C(F)(F)F)c1)C(=O)Nc1ccc(Cl)cc1 (stereo not drawn) (2.5 µM)
0: all assays above

CCCCNc1ncc2c(-c3ccc(F)cc3)nn(CC3CCC(N)CC3)c2n1 (stereo not drawn) (2.5 µM)
4: MKNK1
0: all other assays above

Cc1cc(N2CCOCC2)ccc1Nc1nc(NC2CCCCC2)c2[nH]cnc2n1 (10 µM)
0: all assays above

COc1cc2nc(-c3cc(F)ccc3O)nc(N[C@@H]3CNC[C@H]3C(C)(C)O)c2cc1OC (2.5 µM)
0: all assays above

COC(=O)N1CCN(C2CCC(Nc3nc(Nc4cnn(C)c4)nc4ccc(CC#N)nc34)CC2)CC1 (stereo not drawn) (10 µM)
0: all assays above
